Source: US20240360248A1 (NANOMAB TECHNOLOGY, published 2024)
Results are given in words; binding and its absence hold for the method and conditions named. Some binding calls cover weakened binding; strength is not graded here. Where a sequence is shown, tags or fusion partners need not be part of it. Values belong to the binder of their own block, whether it stands above or below them.

Tests used:
[1] = biological target: T1, PTK7-Fc antigen protein from mouse species (mouse) (UniProt Q8BKG3); test: ELISA on coated antigen
T1 sequence (looked up): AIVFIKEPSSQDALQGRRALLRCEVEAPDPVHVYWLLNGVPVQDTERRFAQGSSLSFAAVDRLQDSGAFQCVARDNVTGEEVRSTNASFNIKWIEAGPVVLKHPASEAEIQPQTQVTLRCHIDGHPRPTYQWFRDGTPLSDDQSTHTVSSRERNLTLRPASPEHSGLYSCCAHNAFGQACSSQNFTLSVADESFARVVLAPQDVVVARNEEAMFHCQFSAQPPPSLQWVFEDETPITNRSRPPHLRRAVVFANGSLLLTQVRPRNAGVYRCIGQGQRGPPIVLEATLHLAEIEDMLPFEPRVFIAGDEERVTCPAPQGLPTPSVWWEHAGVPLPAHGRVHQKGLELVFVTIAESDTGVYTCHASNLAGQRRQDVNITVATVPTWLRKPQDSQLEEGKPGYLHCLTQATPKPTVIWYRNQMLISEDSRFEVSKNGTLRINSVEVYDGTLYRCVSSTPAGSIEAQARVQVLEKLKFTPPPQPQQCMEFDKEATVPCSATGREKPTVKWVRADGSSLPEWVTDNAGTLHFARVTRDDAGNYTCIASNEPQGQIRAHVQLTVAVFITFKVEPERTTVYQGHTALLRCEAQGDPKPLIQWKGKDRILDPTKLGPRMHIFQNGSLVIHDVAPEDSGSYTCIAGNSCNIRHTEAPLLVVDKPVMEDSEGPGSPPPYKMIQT

[2] = biological target: T2, PTK7-His antigen protein from rhesus monkey species (rhesus monkey) (UniProt F7G3Z5); test: ELISA on coated antigen
T2 sequence: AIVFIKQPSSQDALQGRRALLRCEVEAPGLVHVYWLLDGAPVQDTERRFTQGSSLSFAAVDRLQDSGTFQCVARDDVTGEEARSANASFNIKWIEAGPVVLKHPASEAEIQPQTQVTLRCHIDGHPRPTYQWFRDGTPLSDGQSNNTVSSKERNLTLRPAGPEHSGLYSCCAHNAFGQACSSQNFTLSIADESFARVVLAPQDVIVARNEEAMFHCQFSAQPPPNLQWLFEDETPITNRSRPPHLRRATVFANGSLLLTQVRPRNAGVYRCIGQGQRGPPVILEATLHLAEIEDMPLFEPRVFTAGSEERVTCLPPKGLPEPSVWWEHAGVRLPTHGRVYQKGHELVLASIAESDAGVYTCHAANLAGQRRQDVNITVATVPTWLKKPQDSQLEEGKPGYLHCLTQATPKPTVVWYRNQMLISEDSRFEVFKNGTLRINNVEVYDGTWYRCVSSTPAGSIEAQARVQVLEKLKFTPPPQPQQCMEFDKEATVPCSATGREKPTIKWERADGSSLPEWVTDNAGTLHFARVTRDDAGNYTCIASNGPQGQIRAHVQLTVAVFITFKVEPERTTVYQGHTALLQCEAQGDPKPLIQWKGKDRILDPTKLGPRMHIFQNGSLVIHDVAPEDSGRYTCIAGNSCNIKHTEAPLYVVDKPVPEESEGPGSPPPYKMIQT

binding [1]: binds
binding [2]: binds
B1: MY2132-4-22 (VHH)
VHH: QVQLQESGGGSVQAGGSLRLSCTASGFTFDDYDMVWYRQAPGNEYEWLSTVSRGGNLYYADSVKGRFTISRDNAKNTVYLNMSRVKPEDTAVYYCAADLRSVPSTYRARTCRGRYCRDYWGQGTQVTVSS
notes: Camel VHH expressed in E. coli WK6 and purified on a nickel column; also called MY2132-4-22 VHH; anti-PTK7 single domain antibody

binding [2]: binds
B2: MY2132-5-51 (VHH)
VHH: QVQLQESGGGLVQPGGSLTLACAASGFAFSSYAMRWVRQAPGKGLEGVSSISAGGDETYYADFAKGRFTISRDNAKNTLYLQLNSLKTEDTAMYYCAKGDRNSPRYSSWPITPVGQGTQVTVSS
notes: Camel VHH expressed in E. coli WK6 and purified on a nickel column; also called MY2132-5-51 VHH; anti-PTK7 single domain antibody
